In PMC11721573:
Read-outs that look alike come from different tables or passages of the source. No constants are given. Whether binding was seen depends on the method and setting. In cells and extracts the contact can be indirect. A result given as binding can be weak or reduced; the word gives no strength.

The chains behind the UniProt entries cited, without tags or fusion partners. Where a name states a change or a piece, a line headed by the entry shows the natural chain unless it says otherwise.
UniProt P09022: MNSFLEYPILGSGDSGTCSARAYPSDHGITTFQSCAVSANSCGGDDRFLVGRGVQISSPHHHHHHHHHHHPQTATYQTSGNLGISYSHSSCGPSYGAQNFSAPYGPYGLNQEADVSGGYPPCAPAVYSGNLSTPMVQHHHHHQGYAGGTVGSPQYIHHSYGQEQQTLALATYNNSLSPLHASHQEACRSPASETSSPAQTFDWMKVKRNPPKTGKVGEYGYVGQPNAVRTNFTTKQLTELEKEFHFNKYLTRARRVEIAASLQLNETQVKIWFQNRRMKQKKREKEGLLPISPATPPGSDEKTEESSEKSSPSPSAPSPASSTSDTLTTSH
UniProt P31245: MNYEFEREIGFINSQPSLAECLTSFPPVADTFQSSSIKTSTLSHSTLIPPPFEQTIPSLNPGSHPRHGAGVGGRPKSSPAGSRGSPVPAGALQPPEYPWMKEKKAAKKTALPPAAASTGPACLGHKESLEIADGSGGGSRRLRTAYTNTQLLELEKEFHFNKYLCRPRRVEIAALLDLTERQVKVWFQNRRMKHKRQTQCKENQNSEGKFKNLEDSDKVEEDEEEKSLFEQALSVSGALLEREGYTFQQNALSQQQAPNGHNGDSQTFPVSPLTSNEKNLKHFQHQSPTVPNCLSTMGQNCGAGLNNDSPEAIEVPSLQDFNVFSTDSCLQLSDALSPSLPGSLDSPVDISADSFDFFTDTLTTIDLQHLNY
UniProt O60479: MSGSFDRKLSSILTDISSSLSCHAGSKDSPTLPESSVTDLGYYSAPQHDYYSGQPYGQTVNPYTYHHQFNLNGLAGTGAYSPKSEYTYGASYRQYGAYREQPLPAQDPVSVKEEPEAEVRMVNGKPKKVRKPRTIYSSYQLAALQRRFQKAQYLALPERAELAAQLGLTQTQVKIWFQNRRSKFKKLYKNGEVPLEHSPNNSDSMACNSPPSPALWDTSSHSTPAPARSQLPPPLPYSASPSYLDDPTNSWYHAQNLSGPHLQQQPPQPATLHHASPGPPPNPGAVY

Assays:
[1] = target: HOXA1^ΔHD (mouse) (UniProt P09022); assay: split reporter; BiFC with VN173 and VC155 moieties of Venus in transfected COS-7 cells, fixed 24 h after transfection, confocal microscopy; positive when the signal was at least 3 times that of the 3 control conditions
[2] = target: HOXA2^ΔHD (mouse) (UniProt P31245); assay: as above
[3] = target: HOXA1 (mouse) (UniProt P09022); assay: as above
[4] = target: HOXA1 (mouse) (UniProt P09022); assay: pull-down; glutathione coprecipitation: HEK293T cells co-transfected with plasmids for a GST-tagged and a FLAG-tagged protein; lysis in IPLS buffer (20 mM Tris-HCl pH 7.5, 120 mM NaCl, 0.5 mM EDTA, 0.5% NP40, 10% glycerol); overnight on glutathione-sepharose beads at 4 °C; Western blot with anti-FLAG and anti-GST
[5] = target: HOXA1^ΔHD (mouse) (UniProt P09022); assay: split reporter; BiFC with VN173 and VC155 moieties of Venus in transfected COS-7 cells, fixed 24 h after transfection, confocal microscopy; positive when the signal was at least 3 times that of the 3 control conditions; remark: listed apart in the source
[6] = target: HOXA2^ΔHD (mouse) (UniProt P31245); assay: as above; remark: listed apart in the source

binding [1] | binding [3] | Molecule | further results
binds | – | DLX3 (from UniProt O60479 1-287) | binding [2]: binds
– | binds | HOXA1^ΔHD (from UniProt P09022) | binding [4]: binds
binds | – | HOXA2 (from UniProt P31245 1-372) | –
binds | binds | HOXA2^ΔHD (from UniProt P31245) | –
– | – | PBX1A (protein, UniProt P40424-1 1-430) MDEQPRLMHSHAGVGMAGHPGLSQHLQDGAGGTEGEGGRKQDIGDILQQIMTITDQSLDEAQARKHALNCHRMKPALFNVLCEIKEKTVLSIRGAQEEEPTDPQLMRLDNMLLAEGVAGPEKGGGSAAAAAAAAASGGAGSDNSVEHSDYRAKLSQIRQIYHTELEKYEQACNEFTTHVMNLLREQSRTRPISPKEIERMVSIIHRKFSSIQMQLKQSTCEAVMILRSRFLDARRKRRNFNKQATEILNEYFYSHLSNPYPSEEAKEELAKKCGITVSQVSNWFGNKRIRYKKNIGKFQEEANIYAAKTAVTATNVSAHGSQANSPSTPNSAGSSSSFNMSNSGDLFMSVQSLNGDSYQGAQVGANVQSQVDTLRHVISQTGGYSDGLAASQMYSPQGISANGGWQDATTPSSVTSPTEGPGSVHSDTSN | binding [5]: binds; binding [6]: binds
